This is one part of the list.

By UniProt entry, the sequences of proteins in these tests, tags left out. Where a name states a change or a piece, a line headed by the entry shows the natural chain unless it says otherwise.
UniProt Q9NTX5: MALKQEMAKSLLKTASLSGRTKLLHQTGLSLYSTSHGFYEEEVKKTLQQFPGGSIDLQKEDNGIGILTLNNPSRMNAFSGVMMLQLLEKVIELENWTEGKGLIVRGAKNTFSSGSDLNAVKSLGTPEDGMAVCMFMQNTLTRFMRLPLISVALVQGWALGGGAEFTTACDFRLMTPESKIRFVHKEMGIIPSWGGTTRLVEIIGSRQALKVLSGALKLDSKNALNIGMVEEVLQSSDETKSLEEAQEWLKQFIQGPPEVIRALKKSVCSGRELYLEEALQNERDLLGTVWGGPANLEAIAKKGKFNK
UniProt Q96EY1: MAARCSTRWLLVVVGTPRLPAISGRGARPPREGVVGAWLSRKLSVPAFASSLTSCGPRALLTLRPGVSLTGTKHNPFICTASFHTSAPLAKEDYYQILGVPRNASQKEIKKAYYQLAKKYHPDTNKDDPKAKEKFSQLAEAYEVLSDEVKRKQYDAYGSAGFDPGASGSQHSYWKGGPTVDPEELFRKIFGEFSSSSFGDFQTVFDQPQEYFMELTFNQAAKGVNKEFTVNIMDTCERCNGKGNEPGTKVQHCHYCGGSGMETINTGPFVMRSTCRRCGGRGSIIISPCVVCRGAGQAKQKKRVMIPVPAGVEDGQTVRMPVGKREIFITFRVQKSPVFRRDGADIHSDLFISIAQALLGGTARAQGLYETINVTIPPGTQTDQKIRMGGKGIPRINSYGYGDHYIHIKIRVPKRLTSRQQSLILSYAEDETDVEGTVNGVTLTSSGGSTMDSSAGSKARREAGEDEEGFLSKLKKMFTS
UniProt Q9BTV6: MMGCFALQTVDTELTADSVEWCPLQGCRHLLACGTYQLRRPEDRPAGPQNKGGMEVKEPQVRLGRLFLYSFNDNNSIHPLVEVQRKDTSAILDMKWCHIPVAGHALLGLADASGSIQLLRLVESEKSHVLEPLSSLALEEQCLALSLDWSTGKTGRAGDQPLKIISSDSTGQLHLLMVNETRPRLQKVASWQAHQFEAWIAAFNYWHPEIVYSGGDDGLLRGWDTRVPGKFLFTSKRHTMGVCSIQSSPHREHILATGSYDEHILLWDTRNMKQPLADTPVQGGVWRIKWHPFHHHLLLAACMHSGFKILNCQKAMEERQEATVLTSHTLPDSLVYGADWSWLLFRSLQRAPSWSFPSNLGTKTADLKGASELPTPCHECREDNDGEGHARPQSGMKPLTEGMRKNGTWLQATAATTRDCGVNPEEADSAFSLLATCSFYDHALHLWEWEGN
UniProt Q9P2X0: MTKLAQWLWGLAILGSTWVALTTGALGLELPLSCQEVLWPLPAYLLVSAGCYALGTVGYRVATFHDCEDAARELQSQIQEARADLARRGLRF
UniProt Q5JPH6: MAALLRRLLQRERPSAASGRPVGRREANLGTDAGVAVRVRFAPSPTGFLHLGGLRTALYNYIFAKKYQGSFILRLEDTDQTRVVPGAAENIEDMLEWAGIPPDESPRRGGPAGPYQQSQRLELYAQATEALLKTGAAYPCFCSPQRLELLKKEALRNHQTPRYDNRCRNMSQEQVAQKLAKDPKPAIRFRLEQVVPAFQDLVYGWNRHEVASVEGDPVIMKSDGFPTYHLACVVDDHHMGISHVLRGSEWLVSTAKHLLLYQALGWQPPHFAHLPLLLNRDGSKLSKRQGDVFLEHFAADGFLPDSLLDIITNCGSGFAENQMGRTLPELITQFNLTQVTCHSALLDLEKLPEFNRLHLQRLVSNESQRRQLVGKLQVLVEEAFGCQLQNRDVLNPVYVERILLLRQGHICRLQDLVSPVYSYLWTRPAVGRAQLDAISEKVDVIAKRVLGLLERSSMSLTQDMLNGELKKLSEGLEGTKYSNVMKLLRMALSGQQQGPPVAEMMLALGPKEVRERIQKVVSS
UniProt O60869: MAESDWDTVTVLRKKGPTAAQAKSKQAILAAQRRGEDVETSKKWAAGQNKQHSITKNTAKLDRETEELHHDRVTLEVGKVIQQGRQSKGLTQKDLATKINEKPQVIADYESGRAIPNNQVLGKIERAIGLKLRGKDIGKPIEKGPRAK
UniProt O75190: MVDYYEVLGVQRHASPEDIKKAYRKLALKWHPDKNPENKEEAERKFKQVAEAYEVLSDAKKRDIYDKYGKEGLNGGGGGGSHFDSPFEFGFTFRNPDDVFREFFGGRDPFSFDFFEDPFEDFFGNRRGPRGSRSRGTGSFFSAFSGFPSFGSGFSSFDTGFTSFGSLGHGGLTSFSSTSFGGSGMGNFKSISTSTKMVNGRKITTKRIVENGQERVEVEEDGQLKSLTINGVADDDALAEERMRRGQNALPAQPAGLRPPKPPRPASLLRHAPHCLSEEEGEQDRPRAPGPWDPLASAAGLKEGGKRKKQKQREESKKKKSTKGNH
UniProt Q15125: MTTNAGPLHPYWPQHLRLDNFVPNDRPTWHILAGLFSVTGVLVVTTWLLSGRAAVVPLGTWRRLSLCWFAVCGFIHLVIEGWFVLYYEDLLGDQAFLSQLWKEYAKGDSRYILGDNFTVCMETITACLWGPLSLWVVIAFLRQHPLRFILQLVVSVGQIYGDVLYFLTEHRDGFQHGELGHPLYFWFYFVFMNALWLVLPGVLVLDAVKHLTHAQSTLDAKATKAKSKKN
UniProt P33316: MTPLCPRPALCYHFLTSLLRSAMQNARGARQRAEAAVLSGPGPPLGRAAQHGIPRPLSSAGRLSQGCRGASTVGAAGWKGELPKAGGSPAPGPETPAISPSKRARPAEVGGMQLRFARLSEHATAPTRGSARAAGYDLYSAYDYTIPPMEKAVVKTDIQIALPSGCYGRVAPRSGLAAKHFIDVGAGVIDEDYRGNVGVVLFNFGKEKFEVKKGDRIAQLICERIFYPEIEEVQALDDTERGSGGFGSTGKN
UniProt Q8WWZ3: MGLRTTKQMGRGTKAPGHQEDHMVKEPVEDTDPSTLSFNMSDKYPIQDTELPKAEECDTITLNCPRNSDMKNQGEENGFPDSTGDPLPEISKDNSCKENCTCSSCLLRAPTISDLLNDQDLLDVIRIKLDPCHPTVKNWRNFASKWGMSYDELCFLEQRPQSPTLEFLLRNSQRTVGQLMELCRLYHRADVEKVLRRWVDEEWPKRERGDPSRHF
UniProt Q01658: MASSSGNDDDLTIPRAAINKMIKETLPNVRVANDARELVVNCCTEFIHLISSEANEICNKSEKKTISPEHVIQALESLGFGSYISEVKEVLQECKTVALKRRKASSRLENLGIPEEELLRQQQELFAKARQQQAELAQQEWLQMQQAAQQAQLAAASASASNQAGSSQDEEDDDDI
UniProt Q9UNI6, whole entry, looked up: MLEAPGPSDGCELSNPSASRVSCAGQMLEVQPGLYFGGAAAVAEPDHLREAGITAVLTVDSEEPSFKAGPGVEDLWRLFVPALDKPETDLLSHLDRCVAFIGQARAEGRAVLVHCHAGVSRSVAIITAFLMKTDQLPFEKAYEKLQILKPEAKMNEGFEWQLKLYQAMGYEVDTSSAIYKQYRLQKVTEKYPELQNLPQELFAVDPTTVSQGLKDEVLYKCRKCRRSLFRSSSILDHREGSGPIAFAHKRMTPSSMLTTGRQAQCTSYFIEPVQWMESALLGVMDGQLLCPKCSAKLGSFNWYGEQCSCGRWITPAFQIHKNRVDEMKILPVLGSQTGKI
UniProt Q9BZG8: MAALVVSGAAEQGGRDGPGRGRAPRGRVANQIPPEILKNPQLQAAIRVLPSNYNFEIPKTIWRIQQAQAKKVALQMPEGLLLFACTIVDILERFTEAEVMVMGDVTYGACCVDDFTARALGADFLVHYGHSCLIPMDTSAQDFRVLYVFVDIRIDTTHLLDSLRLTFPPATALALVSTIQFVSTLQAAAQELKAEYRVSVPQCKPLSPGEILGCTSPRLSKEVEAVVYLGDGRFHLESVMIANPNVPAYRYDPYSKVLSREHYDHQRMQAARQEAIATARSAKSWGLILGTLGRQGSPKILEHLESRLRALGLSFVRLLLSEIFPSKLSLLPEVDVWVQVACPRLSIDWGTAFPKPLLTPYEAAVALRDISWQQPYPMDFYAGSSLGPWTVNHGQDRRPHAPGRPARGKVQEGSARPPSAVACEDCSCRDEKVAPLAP
UniProt Q14126: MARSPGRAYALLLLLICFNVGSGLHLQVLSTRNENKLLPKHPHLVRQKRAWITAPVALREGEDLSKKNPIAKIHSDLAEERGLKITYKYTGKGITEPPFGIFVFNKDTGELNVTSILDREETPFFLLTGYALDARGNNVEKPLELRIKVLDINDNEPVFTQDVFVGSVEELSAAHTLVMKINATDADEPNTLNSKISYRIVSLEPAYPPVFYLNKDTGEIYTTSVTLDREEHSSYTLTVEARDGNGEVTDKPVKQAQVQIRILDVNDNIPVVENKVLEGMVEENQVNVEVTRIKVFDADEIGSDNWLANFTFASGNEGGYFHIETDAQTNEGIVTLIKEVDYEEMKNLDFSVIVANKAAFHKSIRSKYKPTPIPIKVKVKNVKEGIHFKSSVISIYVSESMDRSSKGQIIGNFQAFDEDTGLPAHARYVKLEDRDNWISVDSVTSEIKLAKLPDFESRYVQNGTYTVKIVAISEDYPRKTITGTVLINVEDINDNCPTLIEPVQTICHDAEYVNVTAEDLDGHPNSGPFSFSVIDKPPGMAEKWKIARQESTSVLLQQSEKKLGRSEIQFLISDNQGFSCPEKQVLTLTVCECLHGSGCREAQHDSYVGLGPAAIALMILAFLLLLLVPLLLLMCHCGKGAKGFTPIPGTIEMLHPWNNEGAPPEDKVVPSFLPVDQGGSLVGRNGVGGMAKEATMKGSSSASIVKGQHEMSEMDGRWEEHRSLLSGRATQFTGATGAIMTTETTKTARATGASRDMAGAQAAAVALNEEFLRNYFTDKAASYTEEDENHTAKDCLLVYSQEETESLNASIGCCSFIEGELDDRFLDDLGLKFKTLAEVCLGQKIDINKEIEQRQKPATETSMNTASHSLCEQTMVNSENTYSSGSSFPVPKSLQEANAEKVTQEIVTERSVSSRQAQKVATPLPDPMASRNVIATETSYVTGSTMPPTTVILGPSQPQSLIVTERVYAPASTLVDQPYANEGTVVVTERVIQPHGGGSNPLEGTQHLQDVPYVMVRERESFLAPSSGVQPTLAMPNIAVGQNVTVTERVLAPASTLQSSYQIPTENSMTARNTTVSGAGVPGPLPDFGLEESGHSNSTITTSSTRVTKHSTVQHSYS
UniProt Q02487, whole entry, looked up: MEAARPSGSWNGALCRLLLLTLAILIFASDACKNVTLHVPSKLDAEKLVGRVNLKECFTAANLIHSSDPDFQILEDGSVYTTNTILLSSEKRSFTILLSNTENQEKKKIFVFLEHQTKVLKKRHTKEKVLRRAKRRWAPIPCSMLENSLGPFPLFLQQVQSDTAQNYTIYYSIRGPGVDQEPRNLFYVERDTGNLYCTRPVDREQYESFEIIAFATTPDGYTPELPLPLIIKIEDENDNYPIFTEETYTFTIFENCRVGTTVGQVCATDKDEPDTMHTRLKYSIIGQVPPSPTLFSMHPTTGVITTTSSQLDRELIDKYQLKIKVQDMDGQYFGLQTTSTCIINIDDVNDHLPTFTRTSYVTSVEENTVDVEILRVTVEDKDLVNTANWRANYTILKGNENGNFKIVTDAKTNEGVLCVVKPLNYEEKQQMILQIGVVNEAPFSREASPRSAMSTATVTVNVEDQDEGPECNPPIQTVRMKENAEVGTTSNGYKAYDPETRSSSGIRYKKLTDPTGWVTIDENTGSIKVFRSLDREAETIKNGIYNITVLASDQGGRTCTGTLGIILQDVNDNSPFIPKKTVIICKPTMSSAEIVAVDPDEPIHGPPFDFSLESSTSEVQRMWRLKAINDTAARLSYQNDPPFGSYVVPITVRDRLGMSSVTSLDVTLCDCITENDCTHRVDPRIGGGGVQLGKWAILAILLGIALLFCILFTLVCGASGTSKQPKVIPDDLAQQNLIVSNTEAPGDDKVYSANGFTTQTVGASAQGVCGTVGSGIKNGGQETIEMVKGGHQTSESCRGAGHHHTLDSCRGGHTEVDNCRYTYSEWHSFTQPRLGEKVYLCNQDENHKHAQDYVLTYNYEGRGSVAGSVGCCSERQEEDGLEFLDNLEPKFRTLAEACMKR
UniProt Q9Y6G9, whole entry, looked up: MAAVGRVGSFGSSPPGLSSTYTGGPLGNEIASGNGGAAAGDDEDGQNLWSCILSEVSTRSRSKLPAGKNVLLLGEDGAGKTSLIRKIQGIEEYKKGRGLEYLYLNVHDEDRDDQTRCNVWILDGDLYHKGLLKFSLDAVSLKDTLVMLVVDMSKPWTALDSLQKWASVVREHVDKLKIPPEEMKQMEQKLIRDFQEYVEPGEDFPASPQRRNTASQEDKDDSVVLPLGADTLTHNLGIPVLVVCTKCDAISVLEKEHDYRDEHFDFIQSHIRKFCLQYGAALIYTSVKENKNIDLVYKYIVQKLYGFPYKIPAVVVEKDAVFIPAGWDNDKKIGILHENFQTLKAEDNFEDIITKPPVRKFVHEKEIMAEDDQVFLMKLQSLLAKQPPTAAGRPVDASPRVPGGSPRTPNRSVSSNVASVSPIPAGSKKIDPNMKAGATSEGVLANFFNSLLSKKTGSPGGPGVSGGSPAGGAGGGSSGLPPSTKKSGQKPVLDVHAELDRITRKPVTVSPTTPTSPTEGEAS

Compound in one assay: CC(C)N(C[C@H]1O[C@@H](n2cnc3c(N)ncnc32)[C@H](O)[C@@H]1O)[C@H]1C[C@@H](CCc2nc3cc(C(C)(C)C)ccc3[nH]2)C1 [pinometostat]
The assay can be described thus: log2 fold change, soluble protein after heating vs DMSO (PISA); higher = thermal stabilisation; K562 cells, 10 uM, 30 min; active = over 0.2 and 3.5 SD of the protein, either way, in both replicates (recomputed). The method in brief:
(§1)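 Aliquots of K562 cells (2×10^6 cells/mL) treated with 10 μM compound for 30 min were heated for 3 min over 48°C-58°C. After pooling and extraction in PBS with 0.5% NP-40 at 4°C, soluble protein from a 21,000xg, 90 min spin was quantified by TMTpro 16plex LC-MS/MS with channel sums equalised. Thermal stability is expressed against control samples, from duplicates, as a log2 fold change.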
As to ECHDC1 (UniProt Q9NTX5), the log2 fold change was inactive: -0.025.

In the case of DNAJA3 (UniProt Q96EY1), the log2 fold change was inactive: 0.089.

DPH7 (UniProt Q9BTV6): the log2 fold change was inactive: 0.037.

As to DPM3 isoform 2 (UniProt Q9P2X0), the log2 fold change is inactive: 0.021.

As to EARS2 isoform 2 (UniProt Q5JPH6), the log2 fold change is inactive: 0.021.

In the case of DST (UniProt Q03001), the log2 fold change was inactive: 0.123.

For DPM1 (UniProt O60762), the log2 fold change was inactive: 0.027.

For ECE1 (UniProt P42892), the log2 fold change was inactive: -0.072.

On to EDF1 (UniProt O60869), for which the log2 fold change is inactive: -0.072.

Consider DPY19L4 (UniProt Q7Z388), for which the log2 fold change is inactive: -0.06.

Turning to DNAJB6 (UniProt O75190), the log2 fold change was inactive: 0.

With EDEM1 (UniProt Q92611), the log2 fold change is inactive: 0.043.

Take DNAJB4 (UniProt Q9UDY4): the log2 fold change was inactive: 0.011.

As for EBP (UniProt Q15125), the log2 fold change was inactive: 0.033.

On to DUT (UniProt P33316), for which the log2 fold change was inactive: -0.012.

Consider DPF2 (UniProt Q92785), for which the log2 fold change is inactive: -0.075.

Regarding EDARADD (UniProt Q8WWZ3), the log2 fold change is inactive: 0.

Consider DUS4L (UniProt O95620), for which the log2 fold change was inactive: 0.004.

Turning to DR1 (UniProt Q01658), the log2 fold change is inactive: -0.007.

As for DUSP12 (UniProt Q9UNI6), the log2 fold change is inactive: -0.032.

As for EAF1 (UniProt Q96JC9), the log2 fold change is inactive: -0.022.

DPH1 (UniProt Q9BZG8): the log2 fold change was inactive: 0.002.

As to DPY30 (UniProt Q9C005), the log2 fold change is inactive: -0.115.

With DNMT1 isoform 2 (UniProt P26358), the log2 fold change is inactive: -0.013.

In the case of DNAJC3 (UniProt Q13217), the log2 fold change is inactive: 0.066.

Consider DSG2 (UniProt Q14126), for which the log2 fold change was inactive: 0.003.

For the target ECI1 (UniProt P42126), the log2 fold change was inactive: -0.043.

Consider DRG1 (UniProt Q9Y295), for which the log2 fold change is inactive: 0.086.

As to DSTN (UniProt P60981), the log2 fold change was inactive: -0.028.

As to DOCK9 isoform 4 (UniProt Q9BZ29), the log2 fold change was inactive: 0.006.

As for DPH2 (UniProt Q9BQC3), the log2 fold change was inactive: 0.011.

As to DSC2 (UniProt Q02487), the log2 fold change was inactive: -0.052.

In the case of DYNC1LI1 (UniProt Q9Y6G9), the log2 fold change was inactive: 0.043.

Turning to ECM1 isoform 4 (UniProt Q16610), the log2 fold change is inactive: 0.023.

Compound in a further assay: CC1=C(C(CC(=O)N1)C2=CC=C(C=C2)C(F)(F)F)C(=O)NC3=C(C=C4C(=C3)C=NN4)F
The description is as above. The method in brief: as §1
As to ECHDC1 (UniProt Q9NTX5), the log2 fold change is inactive: -0.005.

With DNAJA3 (UniProt Q96EY1), the log2 fold change is inactive: -0.014.

As for DPH7 (UniProt Q9BTV6), the log2 fold change was inactive: 0.069.

In the case of DPM3 isoform 2 (UniProt Q9P2X0), the log2 fold change was inactive: 0.048.

As for EARS2 isoform 2 (UniProt Q5JPH6), the log2 fold change is inactive: 0.103.

Turning to DST (UniProt Q03001), the log2 fold change was inactive: 0.047.

Regarding DPM1 (UniProt O60762), the log2 fold change is inactive: 0.002.

As to ECE1 (UniProt P42892), the log2 fold change is inactive: 0.102.

Regarding EDF1 (UniProt O60869), the log2 fold change is inactive: -0.014.

Regarding DPY19L4 (UniProt Q7Z388), the log2 fold change was inactive: -0.173.

DNAJB6 (UniProt O75190): the log2 fold change was inactive: -0.012.

For the target EDEM1 (UniProt Q92611), the log2 fold change was inactive: -0.065.

As for DNAJB4 (UniProt Q9UDY4), the log2 fold change is inactive: -0.024.

For EBP (UniProt Q15125), the log2 fold change was inactive: -0.056.

For the target DUT (UniProt P33316), the log2 fold change is inactive: 0.083.

In the case of DPF2 (UniProt Q92785), the log2 fold change was inactive: 0.061.

Regarding EDARADD (UniProt Q8WWZ3), the log2 fold change was inactive: 0.

For DUS4L (UniProt O95620), the log2 fold change was inactive: 0.014.

For the target DR1 (UniProt Q01658), the log2 fold change was inactive: 0.152.

Consider DUSP12 (UniProt Q9UNI6), for which the log2 fold change is inactive: -0.067.

For the target EAF1 (UniProt Q96JC9), the log2 fold change is inactive: -0.019.

As to DPH1 (UniProt Q9BZG8), the log2 fold change was inactive: 0.042.

Turning to DPY30 (UniProt Q9C005), the log2 fold change is inactive: 0.009.

Turning to DNMT1 isoform 2 (UniProt P26358), the log2 fold change is inactive: -0.032.

Take DNAJC3 (UniProt Q13217): the log2 fold change was inactive: 0.025.

Turning to DSG2 (UniProt Q14126), the log2 fold change is inactive: 0.026.

ECI1 (UniProt P42126): the log2 fold change is inactive: 0.023.

Regarding DRG1 (UniProt Q9Y295), the log2 fold change was inactive: -0.017.

Consider DSTN (UniProt P60981), for which the log2 fold change was inactive: -0.013.

Consider DOCK9 isoform 4 (UniProt Q9BZ29), for which the log2 fold change was inactive: -0.021.

For DPH2 (UniProt Q9BQC3), the log2 fold change is inactive: 0.064.

On to DSC2 (UniProt Q02487), for which the log2 fold change was inactive: 0.052.

On to DYNC1LI1 (UniProt Q9Y6G9), for which the log2 fold change was inactive: -0.017.

Regarding ECM1 isoform 4 (UniProt Q16610), the log2 fold change is inactive: 0.019.

Compound in the next assay: CC1=C(C2=C(C=C1)C(=O)C3=CC=CC=C3N2CCCN)C
Described as above. The method in brief: as §1
For the target ECHDC1 (UniProt Q9NTX5), the log2 fold change was inactive: 0.005.

As for DNAJA3 (UniProt Q96EY1), the log2 fold change was inactive: 0.064.

As for DPH7 (UniProt Q9BTV6), the log2 fold change was inactive: -0.075.

In the case of DPM3 isoform 2 (UniProt Q9P2X0), the log2 fold change was inactive: 0.138.

With EARS2 isoform 2 (UniProt Q5JPH6), the log2 fold change was inactive: 0.153.

Regarding DST (UniProt Q03001), the log2 fold change is inactive: 0.011.

On to DPM1 (UniProt O60762), for which the log2 fold change was inactive: 0.026.

Consider ECE1 (UniProt P42892), for which the log2 fold change was inactive: -0.123.

On to EDF1 (UniProt O60869), for which the log2 fold change is inactive: 0.003.

For the target DPY19L4 (UniProt Q7Z388), the log2 fold change is inactive: -0.074.

Take DNAJB6 (UniProt O75190): the log2 fold change was inactive: 0.069.

For the target EDEM1 (UniProt Q92611), the log2 fold change was inactive: 0.023.

Take DNAJB4 (UniProt Q9UDY4): the log2 fold change was inactive: 0.027.

With EBP (UniProt Q15125), the log2 fold change is inactive: 0.028.

Regarding DUT (UniProt P33316), the log2 fold change was inactive: 0.014.

As to DPF2 (UniProt Q92785), the log2 fold change was inactive: 0.013.

In the case of EDARADD (UniProt Q8WWZ3), the log2 fold change was inactive: 0.023.

Consider DUS4L (UniProt O95620), for which the log2 fold change is inactive: 0.018.

On to DR1 (UniProt Q01658), for which the log2 fold change was inactive: -0.011.

As to DUSP12 (UniProt Q9UNI6), the log2 fold change was inactive: -0.056.

Regarding EAF1 (UniProt Q96JC9), the log2 fold change was inactive: -0.103.

As for DPH1 (UniProt Q9BZG8), the log2 fold change is inactive: -0.059.

DPY30 (UniProt Q9C005): the log2 fold change was inactive: -0.021.

As to DNMT1 isoform 2 (UniProt P26358), the log2 fold change is inactive: 0.113.

Consider DNAJC3 (UniProt Q13217), for which the log2 fold change is inactive: -0.058.

With DSG2 (UniProt Q14126), the log2 fold change is inactive: -0.07.

In the case of ECI1 (UniProt P42126), the log2 fold change was inactive: 0.097.

Consider DRG1 (UniProt Q9Y295), for which the log2 fold change is inactive: 0.192.

With DSTN (UniProt P60981), the log2 fold change was inactive: -0.021.

Take DOCK9 isoform 4 (UniProt Q9BZ29): the log2 fold change is inactive: -0.122.

DPH2 (UniProt Q9BQC3): the log2 fold change is inactive: 0.01.

Consider DSC2 (UniProt Q02487), for which the log2 fold change is inactive: 0.029.

As to DYNC1LI1 (UniProt Q9Y6G9), the log2 fold change is inactive: 0.014.

Take ECM1 isoform 4 (UniProt Q16610): the log2 fold change is inactive: -0.033.

Values taken from the supplement of paper PMC10849652.
